At least one structure is not confirmed: it was looked up by name or label, or the drawing left a doubt.
Target: T1, human alpha1,beta2,gamma2 Long GABAA receptor subtype (Homo sapiens, UniProt P14867+P47870)
T1 construct: expressed in transfected cells; host or cells: HEK-293
Assay: Patch-clamp (Dynaflow system) current response in HEK-293 cells transfected with alpha1,beta2,gamma2 Long GABAA receptor
Assay type: cell-based
Settings: 0.03-1 μM THDOC + 30 μM GABA; read-out: IC50/EC50
Method: In these tests the protocol was optimized to be similar to the physiological conditions in the synaptic cleft.
Cell culture: HEK-293 cells, permanently transfected with the human alpha1,beta,gamma and alpha4,beta,delta GABAA receptor subtypes, were seeded at a density of 3×10^4/25 cm^2 in a culture flask. The transfected cells were used for patch-clamp experiments 3 days after seeding. When using the cells for patch-clamp experiments the cells were washed twice with oxygen-bubbled extra cellular (EC) solution (see below). About 5 mL EC was then added and the cells were kept in the incubator for about 15 minutes. After 15 minutes the cells came loose from the bottom of the flask and were separated by carefully sucking a couple of times with a Pasteur pipette. […]
The recordings were made using an Axopatch 200B amplifier, a Digidata 1322A (Axon instruments, Foster city, USA). Data were analysed using the pCLAMP software sampled at 10 kHz, filtered at 2-10 kHz and analyzed with Clampfit (versions 9.0, both from Axon instruments, Foster city, USA). […] The stability of series resistance was monitored repeatedly from the time course of capacitative transients during the experiments. The measured liquid-junction potential between EC and IC was subtracted in all data presented. […]

Chains of the proteins cited; added tags and fusions are not shown. Residues count along the entry.
UniProt P14867, 28-456: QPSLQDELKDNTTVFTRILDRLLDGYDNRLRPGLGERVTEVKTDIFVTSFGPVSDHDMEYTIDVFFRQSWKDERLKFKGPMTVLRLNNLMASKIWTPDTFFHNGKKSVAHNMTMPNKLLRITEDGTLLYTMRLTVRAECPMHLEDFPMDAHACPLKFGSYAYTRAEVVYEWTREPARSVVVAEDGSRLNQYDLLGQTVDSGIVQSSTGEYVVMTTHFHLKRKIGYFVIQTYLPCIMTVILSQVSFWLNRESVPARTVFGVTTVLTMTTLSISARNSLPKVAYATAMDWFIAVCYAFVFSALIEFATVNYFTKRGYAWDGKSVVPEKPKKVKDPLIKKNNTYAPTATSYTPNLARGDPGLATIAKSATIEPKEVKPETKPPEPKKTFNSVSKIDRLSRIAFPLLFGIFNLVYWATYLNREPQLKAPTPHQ
UniProt P47870, 25-512 limits assumed: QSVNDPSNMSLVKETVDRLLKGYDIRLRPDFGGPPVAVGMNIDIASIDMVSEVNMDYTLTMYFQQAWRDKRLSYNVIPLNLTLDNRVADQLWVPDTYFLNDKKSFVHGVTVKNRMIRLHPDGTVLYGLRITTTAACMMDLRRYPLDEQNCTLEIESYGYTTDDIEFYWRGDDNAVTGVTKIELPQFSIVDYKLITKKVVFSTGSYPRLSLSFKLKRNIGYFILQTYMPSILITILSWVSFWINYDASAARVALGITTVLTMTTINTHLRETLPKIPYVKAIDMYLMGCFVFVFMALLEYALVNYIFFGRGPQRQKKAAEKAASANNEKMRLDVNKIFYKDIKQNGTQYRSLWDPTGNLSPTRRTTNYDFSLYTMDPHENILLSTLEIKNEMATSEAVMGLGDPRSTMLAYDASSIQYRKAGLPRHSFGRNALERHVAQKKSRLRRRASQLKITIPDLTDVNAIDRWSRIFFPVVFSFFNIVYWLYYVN

Question: How did the EC50 turn out when `C[C@]12CC[C@@H](O)C[C@H]1CC[C@@H]1[C@@H]2CC[C@]2(C)[C@@H](C(=O)CO)CC[C@@H]12` [THDOC, Tetrahydrodeoxycorticosterone, reference compound] was run?
Answer: 70 nM

From US20210161915A1, “GABA-A ANTAGONISTS FOR TREATING SUBSTANCE […]” (ASARINA PHARMA APS, priority 2018, published 2021)
